In US10239957B2, “Peptide containing conjugates for dual molecular delivery of oligonucleotides” (Merck Sharp & Dohme Corp., priority 2013, dated 2019):
At least one peptide structure holds a part that was inferred or is arguable (an end, a ring closure or a residue). *1 amine or outer side, *2 acyl side, *3 side chain or, on linkers, in order; H or OH if unused. Where a SMILES comes first, the peptide text is derived from it. [ ]: non-standard residue; d: D form. The star is where a group is joined. X1 = CC(=O)N[C@H]1[C@H](OCCOCCn2cc(CN(CCCC[C@@H](C(=O)*)N(Cc3cn(CCOCCO[C@@H]4O[C@H](CO)[C@H](O)[C@H](O)[C@H]4NC(C)=O)nn3)Cc3cn(CCOCCO[C@@H]4O[C@H](CO)[C@H](O)[C@H](O)[C@H]4NC(C)=O)nn3)Cc3cn(CCOCCO[C@@H]4O[C@H](CO)[C@H](O)[C@H](O)[C@H]4NC(C)=O)nn3)nn2)O[C@H](CO)[C@H](O)[C@@H]1O; PABC = O=C(OCc1ccc(N[*:1])cc1)[*:2]; Cit = NC(=O)NCCC[C@H](N)C(=O)O

Tested on: CTNNB1
Test: In vivo evaluation in mice: liver mRNA knockdown measurement
Conditions: Table 8 (linkage comparison), TGN-L-siRNA-II 0.25 mg/kg
Procedure: Female CD-1 mice (Charles River) were injected in accordance with either a sequential dosing paradigm or a co-dosing paradigm. In the sequential dosing paradigm, the targeted siRNA (SCE) is dosed at t=0 and the targeted peptide is separately dosed up to 2 hr before the SCE (−2 hr) or up to 24 hr after the SCE (+24 hr). In the co-dosing paradigm, the SCE and peptides are co-formulated and dosed together in the same formulation as a single injection at t=0. The mice were dosed either by intravenous (i.v.) or subcutaneous (s.c.) injection of SCE and peptide. For the i.v. doses, the compounds were injected into the tail vein of the mice. […] At the indicated harvest times (measured from t=0 when the siRNA was dosed, regardless of when the peptide was dosed), the animals were sacrificed and 3 mm liver punches were collected, preserved in RNAlater (Ambion), and stored at 4° C. […]
The 3 mm liver punches were removed from RNAlater and homogenized in Trizol (Invitrogen) using a bead mill tissue lyser (Qiagen); disruption was performed for two 5-minute cycles at 30 Hz. […] Results are calculated by the comparative Ct method, where the difference between the CTNNB1 Ct value and the PPIB Ct value (ΔCt) is calculated and then further normalized relative to the PBS control by taking a second difference (ΔΔCt), as described previously (1).

CC[C@@H](C)[C@@H](NC(=O)[C@@H](CCC(=O)O)NC(=O)CNC(=O)[C@@H](Cc1ccccc1)NC(=O)[C@@H](CC(C)C)NC(=O)CNC(=O)OCc1ccc(NC(=O)[C@H](CCCNC(N)=O)NC(=O)[C@@H](NC(=O)[C@H](CCCCN(Cc2cn(CCOCCO[C@@H]3O[C@H](CO)[C@H](O)[C@H](O)[C@H]3NC(C)=O)nn2)Cc2cn(CCOCCO[C@@H]3O[C@H](CO)[C@H](O)[C@H](O)[C@H]3NC(C)=O)nn2)N(Cc2cn(CCOCCO[C@@H]3O[C@H](CO)[C@H](O)[C@H](O)[C@H]3NC(C)=O)nn2)Cc2cn(CCOCCO[C@@H]3O[C@H](CO)[C@H](O)[C@H](O)[C@H]3NC(C)=O)nn2)C(C)C)cc1)C(=O)N[C@H](CCC(=O)O)C(=O)N[C@H](CCC(=O)O)C(=O)N[C@H](CC(C)C)C(=O)N[C@@H](C(=O)N[C@H](CCC(=O)O)C(=O)N[C@H](CCC(=O)O)C(=O)NCC(=O)N[C@H](CC(C)C)C(=O)N[C@H](CCC(=O)O)C(=O)N[C@H](CC(N)=O)C(=O)N[C@H](CC(C)C)C(=O)N[C@@H](C(=O)N[C@H](CC(=O)O)C(=O)N[C@H](Cc1c[nH]c2ccccc12)C(=O)NCC(=O)N[C@H](CC(N)=O)C(=O)NCC(N)=O)[C@H](C)CC)[C@H](C)CC [TGN-ECL-SEQ ID NO: 1801 (D)] (X1-V[Cit][PABC]G[dL][dF]G[dE][dI][dE][dE][dL][dI][dE][dE]G[dL][dE][dN][dL][dI][dD][dW]G[dN]G-NH2)
In vivo mRNA knockdown (peptide 1 mg/kg): 29.6%
In vivo mRNA knockdown (peptide 3 mg/kg): 47.4%
